According to PubChem BioAssay AID540276 (National Center for Advancing Translational Sciences (NCATS), 2011):
Hit rate of the full screen: of about 300,000 compounds, about 5,400 (1.8%) were called active. Inconclusive results, whose numbers are uncertain, are shown with a selection of clear calls. The call rests on the fitted dose curve; tested in HEK293 cells. Potencies beside an inconclusive call are fits to weak or partial responses and may not hold up.

Assay: qHTS for inhibitors of binding or entry into cells for Marburg Virus
Conditions: Marburg virus pseudotyped entry inhibition, cell reporter; activity change, negative = inhibition: at 37.8 µM (top of the series) unless noted
On the % scale 0 is the no-effect control and ±100 the full control effect; potency means the concentration at half of the fitted maximal effect.

SMILES | Potency | activity change, negative = inhibition
COc1cc(CC(=O)Nc2ccc(Cl)c(C(F)(F)F)c2)cc(OC)c1OC | inconclusive: 29.1 µM [inhibitor, single point] | –
CC1=C(C(=O)OC(C)C)C(c2ccccc2Cl)CC(=O)N1 (stereo not drawn) | inconclusive: 10 µM [inhibitor, partial curve, poor fit] | –
Cc1ccc(S(=O)(=O)c2nc(-c3cccs3)oc2SC(C)C)cc1 | – | inactive: -23.5% [at 46.1 µM]
CCOCC(=O)Nc1ccccc1C(=O)O | inconclusive: 5.62 µM [activator, single point] | –
O=C(Nc1cccc(-c2nc3cccnc3s2)c1)c1cccc(Br)c1 | – | inactive: 2.69% [at 46.1 µM]
CCOC(=O)N1CCC(N2C(=O)c3ccccc3C2Nc2cc(C(=O)OC)cc(C(=O)OC)c2)CC1 (stereo not drawn) | – | inactive: 2.61%
COc1ccc(CC(=O)Nc2nc(-c3ccc(OC)c(OC)c3)cs2)cc1OC | inconclusive: 35.5 µM [inhibitor, single point] | –
Cn1cnc2c(=O)sc3ccccc3c21 | inconclusive: 15.8 µM [activator, single point] | –
COc1cc([C@H](O)CO)ccc1O | – | inactive: 15.2%
CCOC(=O)c1c(C)oc2c1c(CN1CCN(CCO)CC1)c(O)c1ccccc12 | inconclusive: 3.98 µM [activator, single point] | –
CC1CC(C)CN(C(=O)c2ccncc2)C1 (stereo not drawn) | inconclusive: 7.08 µM [activator, partial curve, poor fit] | –
COCCNc1nc2c(c(=O)n(C)c(=O)n2C)n1Cc1cccc(C(F)(F)F)c1 | inconclusive: 20 µM [inhibitor, single point] | –
COc1ccc(Cl)cc1NC(=O)CN(C)C(=O)c1ccc(N2CCCCCC2)c([N+](=O)[O-])c1 | inconclusive: 28.2 µM [inhibitor, partial curve, poor fit] | –
O=C(c1ccc(F)cc1)n1nc(-c2cccnc2)nc1NCc1ccc(F)cc1 | inconclusive: 3.55 µM [activator, single point] | –
C=CCn1c(SCC(=O)Nc2ccc3c(c2)CCC3)nc2ccccc2c1=O | – | inactive: -0.146% [at 46.1 µM]
COc1cc(/C=C2/SC(N)=NC2=O)ccc1Oc1ccc([N+](=O)[O-])cc1[N+](=O)[O-] | inconclusive: 11.2 µM [inhibitor, partial curve] | –
Cc1ccc2nc(-c3cccnc3)c(Nc3ccc(C(C)C)cc3)n2c1 | – | inactive: 1.83% [at 46.1 µM]
COc1ccc(C2CCCN2C(=S)Nc2ccc(C)cc2Cl)cc1OC (stereo not drawn) | inconclusive: 31.6 µM [inhibitor, single point] | –
COc1ccccc1NC(=O)CSc1oc(-c2ccccc2)nc1S(=O)(=O)c1ccc(C)cc1 | inconclusive: 35.5 µM [inhibitor, single point] | –
O=C(CSc1c2c(nc3cc(Cl)ccc13)CCCC2)N1CCN(c2ccccc2F)CC1 | – | inactive: -2.37% [at 46.1 µM]
CCOC(=O)c1cn2nc(N3CCCCC3)ccc2n1 | inconclusive: 3.55 µM [inhibitor, full curve, poor fit] | –
O=c1[nH]c2cc3c(cc2cc1CN(Cc1nnnn1CC1CCCO1)C1CCCCC1)OCO3 (stereo not drawn) | – | inactive: 15.2%
CC(=O)Nc1ccc(S(=O)(=O)N(Cc2ccco2)CC2CCCO2)cc1 (stereo not drawn) | – | inactive: 23.1%
Cc1c(O)ccc(/C=N/Nc2ncccc2[N+](=O)[O-])c1O | inconclusive: 35.5 µM [inhibitor, single point] | –
COc1ccc(Cl)cc1CNCCCSc1ncccn1 | – | inactive: 0.0465%

Sorted by SMILES length (smallest number first): part of the list above.
SMILES | Potency | activity change, negative = inhibition
CC1CC(C)CN(C(=O)c2ccncc2)C1 (stereo not drawn) | inconclusive: 7.08 µM [activator, partial curve, poor fit] | –
Cc1c(O)ccc(/C=N/Nc2ncccc2[N+](=O)[O-])c1O | inconclusive: 35.5 µM [inhibitor, single point] | –
O=C(c1ccc(F)cc1)n1nc(-c2cccnc2)nc1NCc1ccc(F)cc1 | inconclusive: 3.55 µM [activator, single point] | –
O=c1[nH]c2cc3c(cc2cc1CN(Cc1nnnn1CC1CCCO1)C1CCCCC1)OCO3 (stereo not drawn) | – | inactive: 15.2%

The list goes on.

SMILES | Potency | activity change, negative = inhibition
Cc1nsc(Nc2ccc([N+](=O)[O-])cc2)c1C#N | inconclusive: 3.98 µM [inhibitor, single point] | –
COc1ccccc1C(=O)Nc1ccc2c(c1)OCCO2 | inconclusive: 5.62 µM [activator, single point] | –
Sc1nnc(-c2ccc(Cl)cc2)n1Cc1ccccc1 | inconclusive: 10 µM [inhibitor, partial curve, poor fit] | –
COc1ccc2[nH]c(C)c(C(=O)CN3CCN(C(=O)c4ccco4)CC3)c2c1 | inactive | –
Cc1nnc2n(c1=O)N=C(c1ccc(Cl)cc1)CS2 | inconclusive: 0.0046 µM [activator, full curve, poor fit] | –
c1ccc(-n2nnnc2NCCCN2CCOCC2)cc1 | inconclusive: 25.1 µM [inhibitor, single point] | –
Cc1noc(C)c1COc1cccc(C(=O)NCCc2c[nH]c3ccccc23)c1 | inconclusive: 11.2 µM [inhibitor, partial curve, poor fit] | –
O=C(Nc1ccc(F)c(Cl)c1)c1cc(-c2ccco2)on1 | – | inactive: 4.26% [at 46.1 µM]
CCc1nn(CC(=O)Nc2c(C)cccc2C)c(=O)c2cc3sccc3n12 | – | inactive: 4.67% [at 46.1 µM]
Cc1cc(C)cc(NC(=O)Cn2nnc(C(=O)NCc3cccs3)c2N)c1 | inconclusive: 35.5 µM [inhibitor, single point] | –
CCOc1ccc(/C(CC)=N/NC(=O)C2(C)CC2(Br)Br)cc1 (stereo not drawn) | inconclusive: 7.08 µM [inhibitor, partial curve, poor fit] | –
CCCOC(=O)C(=O)NNc1ccccc1 | inconclusive: 5.62 µM [inhibitor, single point] | –
Cc1cccc(OCc2nnc(SCC(=O)c3cccs3)n2C)c1C | – | inactive: -11.5%
CCOC(=O)N1CCC(=NNc2ccnc3cc(Cl)ccc23)CC1 | inconclusive: 14.1 µM [inhibitor, single point] | –
O=C(Cc1ccccc1)Nc1nnc(SCC(=O)NC2CCCC2)s1 | – | inactive: 12.1% [at 46.1 µM]
COc1ccc(-c2noc(-c3ccc(NCC4CCCO4)c([N+](=O)[O-])c3)n2)cc1 (stereo not drawn) | – | inactive: 2.96% [at 46.1 µM]
Cc1nc(SCC(=O)NCc2ccco2)c2c(C)c(C)sc2n1 | active: 14.6 µM | –
CNC(=O)c1c(NC(=O)Cc2coc3ccc(C)cc23)sc2c1CCCC2 | inconclusive: 35.5 µM [inhibitor, single point] | –
CCOc1cc(N2CCOCC2)c(OCC)cc1NC(=O)Cc1ccccc1 | – | inactive: 16.6% [at 46.1 µM]
O=c1[nH]c2cc3c(cc2cc1CN(CCO)S(=O)(=O)c1ccccc1)OCCO3 | – | inactive: -11.3% [at 46.1 µM]
CCOc1ccc(NC(=O)Cn2nnc(C(=O)NCCc3ccccc3)c2N)cc1 | – | inactive: 5.01% [at 46.1 µM]
COc1ccc(C(=O)N/C(=C\c2ccco2)C(=O)NCc2cccnc2)cc1 | – | inactive: 12.8%
COc1ccc(-c2cc(OC(=O)c3cccc(Cl)c3)c3c(C)oc(C)c3c(=O)c2)cc1 | inconclusive: 31.6 µM [inhibitor, single point] | –
COc1ccc(CC(=O)N2CCN=C2SCc2cccc([N+](=O)[O-])c2)cc1 | inconclusive: 8.91 µM [inhibitor, partial curve, poor fit] | –
O=[N+]([O-])c1ccc(C(c2ccc([N+](=O)[O-])cc2)c2ccc([N+](=O)[O-])cc2)cc1 | inconclusive: 22.4 µM [inhibitor, single point] | –

SMILES | Potency | activity change, negative = inhibition
COc1ccc(Cn2cc(F)c(=O)n(C)c2=O)cc1[N+](=O)[O-] | inconclusive: 1.26 µM [inhibitor, single point] | –
COc1ccc(-c2csc(N(CCc3ccccc3)C(=O)COc3ccccc3)n2)cc1 | – | inactive: -7.6%
Cc1nc2cc(NC(=O)Nc3ccc(Br)cc3)ccc2o1 | inconclusive: 0.708 µM [inhibitor, full curve, poor fit] | –
Cc1ccc(NC(=S)N(CCCN2CCOCC2)Cc2cccnc2)cc1C | – | inactive: 14.8% [at 46.1 µM]
CC(C)(C)c1ccc(C(=O)Nc2sc3c(c2C(=O)O)CCC3)cc1 | active: 3.16 µM | –
CCSc1nnc2c(n1)OC(c1ccc(C)s1)Nc1ccccc1-2 (stereo not drawn) | – | inactive: 13.2% [at 46.1 µM]
CCOc1ccc2nc(NC(=O)c3ccc(OC)c(S(=O)(=O)N4CCOCC4)c3)sc2c1 | inconclusive: 23.1 µM [inhibitor, partial curve, poor fit] | –
COc1ccccc1N(CC(=O)NC1CCCCC1)C(=O)CCC(=O)Nc1nccs1 | inconclusive: 12.6 µM [inhibitor, single point] | –
Cc1cccc(NC(=O)c2ccc([N+](=O)[O-])o2)c1C | inconclusive: 35.5 µM [inhibitor, single point] | –
Nc1c(C(=O)c2ccccc2)sc(Nc2ccccc2)c1S(=O)(=O)c1ccccc1 | inconclusive: 23.1 µM [inhibitor, partial curve] | –
Cc1nc2scc(-c3ccco3)c2c(=O)n1/N=C/N(C)C | inconclusive: 0.58 µM [inhibitor, partial curve, poor fit] | –
CC1CN=C(N(C(=O)Nc2ccccc2)c2ccc(S(=O)(=O)N3CCOCC3)cc2)S1 (stereo not drawn) | inactive | –
CCOC(=O)N1CC=C2C(C#N)=C(N)C(C#N)(C#N)[C@H](c3ccccc3OCC)[C@H]2C1 | inconclusive: 20.6 µM [inhibitor, single point] | –
O=C(COC(=O)c1ccccc1Br)NC1CCCC1 | inconclusive: 4.47 µM [activator, full curve, poor fit] | –
CCOc1ccc(-n2c(=O)c3c(C)c(C)sc3n(CC(=O)N3CCC(C)CC3)c2=O)cc1 | – | inactive: -8.23% [at 46.1 µM]
CC1(C)OC(=O)N(c2ccccc2)C12C=Cc1cc(Br)ccc1O2 (stereo not drawn) | active: 18.3 µM | –
O=C(c1cc2ccc([N+](=O)[O-])cc2oc1=O)N1CCOCC1 | – | inactive: 7% [at 46.1 µM]
Cc1ccsc1C(=O)NNC(=O)c1csc(N2CCOCC2)n1 | – | inactive: 16%
O=C(O)c1ccc2c(c1)C(=O)N(c1cccc(C(=O)/C=C/c3ccccc3)c1)C2=O | – | inactive: 16.3% [at 14.2 µM]
COCCNC(=O)c1cccc(Nc2nc(-c3ccccc3)c3cc(Cl)ccc3n2)c1 | – | inactive: 4.65%
CCC(C)NC(=O)CNC(=O)c1nn(-c2ccc(OC)cc2)c(=O)c2ccccc12 (stereo not drawn) | inconclusive: 5.62 µM [inhibitor, partial curve, poor fit] | –
N=c1c(S(=O)(=O)c2ccc(Cl)cc2)cc2c(=O)n3ccccc3nc2n1CCN1CCOCC1 | – | inactive: -20.5%
COc1ccc(-c2cc(C(F)(F)F)nc(NCc3cccnc3)n2)cc1 | inconclusive: 25.9 µM [inhibitor, single point] | –
